Data as given in PubChem BioAssay AID1159584 (Peter MacCallum Cancer Centre, 2016)
Purpose: 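Knock-downs that harm CDH1-null cells more than parental MCF10A cells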 (primary screen). Cell system: human MCF10A breast epithelial cells, parental and CDH1-null. Reagents: siRNA against human genes. Read-out: 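Cell viability by CellTiter-Glo ATP luminescence, each line scaled to the mean of mock wells across plates, then CDH1-null over parental ratio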. Direction: CDH1-null / parental viability ratio: higher = CDH1-null cells survive relatively better than parental; CDH1-null viability vs mock: higher = more viable CDH1-null cells; parental viability vs mock: higher = more viable parental cells.
Shown is one part, drawn at random, of about 18,000 reagents. Not stated in the record: the amount of reagent, the time to read-out.

gene symbol,CDH1-null / parental viability ratio,CDH1-null viability vs mock (fraction of mock),parental viability vs mock (fraction of mock)
SAMD9,1.22,0.88,0.72
MYO16,0.93,0.81,0.87
WARS1,0.95,0.92,0.97
ANKIB1,0.92,0.97,1.06
CPEB1,0.86,0.6,0.7
WAC,0.73,0.49,0.67
ADRM1,0.96,0.52,0.54
PNKP,1.17,0.77,0.66
OR10K2,1.13,0.86,0.76
RBL1,1.03,0.91,0.88
LBHD1,0.81,0.57,0.7
UPF3A,1.16,0.78,0.67
PRMT2IP,0.84,0.56,0.67
PDK3,1.11,0.82,0.74
TM4SF20,1.06,1.04,0.98
PRODH2,1.06,0.92,0.87
SLC6A17,1.25,1.04,0.83
WNT9B,0.49,0.48,0.98
SNRNP40,1.1,1.08,0.98
CYP26B1,0.89,0.76,0.85
CAMK2N2,0.81,0.7,0.86
UAP1,1,0.88,0.88
CATSPER1,1.23,1.32,1.07
AIP,0.74,0.5,0.68
FDX1,0.91,0.97,1.07
HSPB9,1.04,0.52,0.5
PLEKHG4,1.52,0.7,0.46
MBD2,0.83,0.4,0.48

Records above whose gene name starts with P or p:
gene symbol,CDH1-null / parental viability ratio,CDH1-null viability vs mock (fraction of mock),parental viability vs mock (fraction of mock)
PNKP,1.17,0.77,0.66
PRMT2IP,0.84,0.56,0.67
PDK3,1.11,0.82,0.74
PRODH2,1.06,0.92,0.87
PLEKHG4,1.52,0.7,0.46
